The other results are listed elsewhere or left out. These are further read-outs of the screen, such as a control signal, another cell line or another target. No call is given for them. The list favours compounds with an active or inconclusive main result. Words in brackets tell the shape of the fitted curve; partial curves, single points and poor fits give uncertain potencies.
Experiment: qHTS Assay for Lipid Storage Modulators in Drosophila S3 Cells;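 on cell number change: cells counted by Cell Tracker Red CMTPX staining in the red channel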
Conditions: BODIPY lipid droplet fluorescence, 18-24 h; for cell number change: measured here: cell count max response, cells fed with added oleic acid
How it was run: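 Drosophila S3 cells loaded with oleic acid (400 uM, as added) and compounds at several concentrations; lipid droplets imaged by 488-nm laser-scanning cytometry, 500–530 nm intensity and object ratio to cell channel. Percent activity normalized to 20 uM Triacsin C.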

[1] = measured here: lipid fluorescence (Fed channel) AC50, cells fed with added oleic acid
[2] = measured here: cell number channel AC50, cells fed with added oleic acid

Compound	cell number change [%]	AC50 [1]	AC50 [2]
Cc1ccc(C(=O)C2=C(O)C(=O)N(Cc3ccco3)C2c2ccc(N(C)C)cc2)o1 (stereo unspecified)	-27.5	4.11 µM [rising, single point]	–
Cc1cc(C(=O)COc2ccc(F)cc2Br)c(C)n1C	71.4	–	–
Cc1n[nH]c(=O)c2c(NC(=O)CSc3cc(Cl)ccc3Cl)oc(C)c12	-16.2	0.326 µM [falling, partial curve, poor fit]	–
C/C(=N\NC(=O)Cn1ccc(C(F)(F)F)n1)c1ccc2c(c1)OCO2	–	16.4 µM [rising, single point]	–
CCOc1ccccc1CNC(=O)c1cc2oc3ccccc3c2n1C	–	2.06 µM [rising, partial curve]	1.46 µM [rising, full curve]
N#CCc1ccc(NC(=O)c2ccc(CN3CCc4ccccc4C3)cc2)cc1	7.77	–	–
CCOC(=O)CCNC(=O)N1CCCC(C(=O)c2cccc(Cl)c2)C1 (stereo unspecified)	-50.5	5.17 µM [falling, partial curve]	8.2 µM [falling, partial curve]
CN(C(=O)COC(=O)c1ccc2ccccc2n1)C1CCS(=O)(=O)C1 (stereo unspecified)	97.8	–	29.1 µM [rising, single point]
O=C(NNC1=NCCCCC1)Nc1ccc(Cl)cc1	-31.7	29.1 µM [falling, single point]	–
CN(C)/C=C1\C=C(c2ccccc2)OC1=O	6.61	23.1 µM [falling, single point]	–
COc1ccc(Nc2oc(-c3ccco3)nc2S(=O)(=O)c2ccc(F)cc2)cc1	5.19	1.46 µM [rising, partial curve, poor fit]	–
O=C(Cn1cnc2c(nnn2-c2ccccc2)c1=O)N1CCOCC1	-74.7	18.4 µM [falling, partial curve]	32.6 µM [falling, partial curve, poor fit]
CN(c1ccccc1C(=O)Nc1ccc2c(c1)n(C)c(=O)n2C)S(C)(=O)=O	4.39	23.1 µM [falling, single point]	–
COC(=O)[C@]1(CC(C)C)N[C@H](c2ccc(-c3cccc(Cl)c3)cc2)[C@@H]2C(=O)N(C)C(=O)[C@@H]21	-53.7	0.731 µM [falling, full curve, poor fit]	16.4 µM [falling, single point]
COc1ccc([C@H]2CC(=O)C=C(/C=C/Cc3ccccc3)C2)cc1	-8.66	6.51 µM [falling, single point]	–
CCC(NC(=O)c1ccccc1O)c1ccccc1 (stereo unspecified)	-17	–	–

A run of entries from the list above, as a working copy:
Compound	cell number change [%]	AC50 [1]	AC50 [2]
CCOC(=O)CCNC(=O)N1CCCC(C(=O)c2cccc(Cl)c2)C1 (stereo unspecified)	-50.5	5.17 µM [falling, partial curve]	8.2 µM [falling, partial curve]
CN(C(=O)COC(=O)c1ccc2ccccc2n1)C1CCS(=O)(=O)C1 (stereo unspecified)	97.8	–	29.1 µM [rising, single point]

Source: PubChem BioAssay AID2685 (National Center for Advancing Translational Sciences (NCATS), 2010)
